35 targets from the supplement of paper PMC12819154, “High-throughput peptide-centric local stability assay extends protein–ligand identification to membrane proteins, tissues and bacteria” (Nature Structural & Molecular Biology, 2025) can be followed below.

The chains behind the UniProt entries cited, without tags or fusion partners. Where a name states a change or a piece, a line headed by the entry shows the natural chain unless it says otherwise.
UniProt Q5SSH7: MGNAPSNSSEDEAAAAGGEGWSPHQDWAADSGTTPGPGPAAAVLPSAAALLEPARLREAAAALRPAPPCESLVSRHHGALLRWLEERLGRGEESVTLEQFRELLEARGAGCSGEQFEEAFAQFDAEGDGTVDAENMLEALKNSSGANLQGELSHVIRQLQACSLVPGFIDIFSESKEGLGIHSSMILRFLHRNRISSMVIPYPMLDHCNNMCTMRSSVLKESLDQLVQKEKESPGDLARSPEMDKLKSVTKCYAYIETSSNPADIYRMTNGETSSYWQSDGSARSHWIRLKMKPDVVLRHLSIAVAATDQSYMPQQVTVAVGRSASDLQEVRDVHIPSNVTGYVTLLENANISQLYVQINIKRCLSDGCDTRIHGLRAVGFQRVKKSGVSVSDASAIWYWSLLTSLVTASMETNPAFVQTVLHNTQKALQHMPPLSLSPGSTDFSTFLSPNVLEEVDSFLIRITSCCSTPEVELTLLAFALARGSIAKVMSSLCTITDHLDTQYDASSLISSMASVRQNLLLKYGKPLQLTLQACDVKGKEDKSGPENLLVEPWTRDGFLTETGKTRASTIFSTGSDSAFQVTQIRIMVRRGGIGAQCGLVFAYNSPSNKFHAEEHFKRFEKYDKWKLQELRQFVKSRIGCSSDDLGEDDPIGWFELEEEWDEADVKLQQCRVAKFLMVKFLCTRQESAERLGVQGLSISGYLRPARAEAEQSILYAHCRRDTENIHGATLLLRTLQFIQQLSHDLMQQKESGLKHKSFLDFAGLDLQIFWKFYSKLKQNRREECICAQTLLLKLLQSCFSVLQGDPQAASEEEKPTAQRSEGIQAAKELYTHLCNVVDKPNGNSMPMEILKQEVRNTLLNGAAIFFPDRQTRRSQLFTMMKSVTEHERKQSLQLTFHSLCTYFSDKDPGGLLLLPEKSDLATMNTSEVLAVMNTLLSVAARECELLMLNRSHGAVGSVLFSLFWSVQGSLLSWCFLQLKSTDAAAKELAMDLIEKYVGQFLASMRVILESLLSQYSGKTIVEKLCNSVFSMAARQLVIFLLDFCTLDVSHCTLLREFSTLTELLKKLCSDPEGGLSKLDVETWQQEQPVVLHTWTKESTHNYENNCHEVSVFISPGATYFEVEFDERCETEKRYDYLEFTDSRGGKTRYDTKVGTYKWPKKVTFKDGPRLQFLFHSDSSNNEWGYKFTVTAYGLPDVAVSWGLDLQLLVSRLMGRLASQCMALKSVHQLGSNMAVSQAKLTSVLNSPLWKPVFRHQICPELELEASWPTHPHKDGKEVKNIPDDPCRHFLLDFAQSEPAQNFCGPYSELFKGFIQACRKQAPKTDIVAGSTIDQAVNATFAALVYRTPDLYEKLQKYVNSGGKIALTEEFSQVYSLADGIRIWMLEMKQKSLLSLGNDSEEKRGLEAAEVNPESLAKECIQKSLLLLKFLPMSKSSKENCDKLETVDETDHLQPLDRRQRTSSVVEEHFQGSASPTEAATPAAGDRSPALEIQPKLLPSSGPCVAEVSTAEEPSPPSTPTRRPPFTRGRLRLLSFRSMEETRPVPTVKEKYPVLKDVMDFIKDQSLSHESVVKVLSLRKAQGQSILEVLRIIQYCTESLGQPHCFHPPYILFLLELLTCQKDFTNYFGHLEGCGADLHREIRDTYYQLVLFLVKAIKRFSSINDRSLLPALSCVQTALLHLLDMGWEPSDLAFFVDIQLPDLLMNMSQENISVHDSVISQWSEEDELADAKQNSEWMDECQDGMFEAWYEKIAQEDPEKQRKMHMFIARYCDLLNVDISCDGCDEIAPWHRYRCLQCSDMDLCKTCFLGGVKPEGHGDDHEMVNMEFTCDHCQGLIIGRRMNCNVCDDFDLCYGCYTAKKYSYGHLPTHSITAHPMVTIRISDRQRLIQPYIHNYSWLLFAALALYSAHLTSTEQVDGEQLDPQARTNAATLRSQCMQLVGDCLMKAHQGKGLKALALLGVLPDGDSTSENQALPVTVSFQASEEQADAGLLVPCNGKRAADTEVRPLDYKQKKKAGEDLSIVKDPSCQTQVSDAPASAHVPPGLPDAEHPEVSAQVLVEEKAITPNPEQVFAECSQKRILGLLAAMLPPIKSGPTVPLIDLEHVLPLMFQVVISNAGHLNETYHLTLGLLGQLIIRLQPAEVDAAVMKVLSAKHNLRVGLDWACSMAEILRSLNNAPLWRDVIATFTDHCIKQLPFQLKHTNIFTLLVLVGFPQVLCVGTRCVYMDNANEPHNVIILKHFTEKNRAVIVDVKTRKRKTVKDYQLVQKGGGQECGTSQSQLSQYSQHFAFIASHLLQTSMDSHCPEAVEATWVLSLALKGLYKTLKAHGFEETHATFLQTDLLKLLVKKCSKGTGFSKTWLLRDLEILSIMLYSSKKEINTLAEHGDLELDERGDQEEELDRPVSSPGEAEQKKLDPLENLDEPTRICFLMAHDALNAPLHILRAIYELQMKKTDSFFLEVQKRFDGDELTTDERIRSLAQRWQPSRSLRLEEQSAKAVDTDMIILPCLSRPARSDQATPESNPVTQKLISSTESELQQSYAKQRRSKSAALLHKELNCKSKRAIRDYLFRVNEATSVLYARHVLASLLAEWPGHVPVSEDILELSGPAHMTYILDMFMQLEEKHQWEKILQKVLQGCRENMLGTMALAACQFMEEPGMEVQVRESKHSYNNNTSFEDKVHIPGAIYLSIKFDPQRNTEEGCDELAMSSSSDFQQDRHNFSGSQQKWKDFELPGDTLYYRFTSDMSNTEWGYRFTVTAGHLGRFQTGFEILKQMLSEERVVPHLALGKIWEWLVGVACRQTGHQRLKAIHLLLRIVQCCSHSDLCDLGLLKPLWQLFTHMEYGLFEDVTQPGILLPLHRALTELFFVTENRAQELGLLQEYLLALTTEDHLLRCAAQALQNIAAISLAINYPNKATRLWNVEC
UniProt Q60760: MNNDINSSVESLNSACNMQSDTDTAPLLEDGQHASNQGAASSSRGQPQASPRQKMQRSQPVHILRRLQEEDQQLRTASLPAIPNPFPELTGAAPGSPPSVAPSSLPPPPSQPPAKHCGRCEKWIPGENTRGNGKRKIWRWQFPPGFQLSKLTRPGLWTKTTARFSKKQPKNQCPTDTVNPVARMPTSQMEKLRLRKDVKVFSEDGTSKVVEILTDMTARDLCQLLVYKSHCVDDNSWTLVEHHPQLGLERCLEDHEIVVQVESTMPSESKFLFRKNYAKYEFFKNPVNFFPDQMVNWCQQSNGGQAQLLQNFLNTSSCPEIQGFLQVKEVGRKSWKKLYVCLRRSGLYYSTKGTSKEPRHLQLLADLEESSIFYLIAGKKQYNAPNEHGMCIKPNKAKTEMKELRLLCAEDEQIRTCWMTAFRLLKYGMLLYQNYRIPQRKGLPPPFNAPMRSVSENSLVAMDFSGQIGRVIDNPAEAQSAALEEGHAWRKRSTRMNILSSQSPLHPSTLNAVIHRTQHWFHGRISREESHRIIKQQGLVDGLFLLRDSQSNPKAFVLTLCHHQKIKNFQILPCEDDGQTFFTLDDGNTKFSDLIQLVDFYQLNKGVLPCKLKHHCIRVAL
UniProt Q60929: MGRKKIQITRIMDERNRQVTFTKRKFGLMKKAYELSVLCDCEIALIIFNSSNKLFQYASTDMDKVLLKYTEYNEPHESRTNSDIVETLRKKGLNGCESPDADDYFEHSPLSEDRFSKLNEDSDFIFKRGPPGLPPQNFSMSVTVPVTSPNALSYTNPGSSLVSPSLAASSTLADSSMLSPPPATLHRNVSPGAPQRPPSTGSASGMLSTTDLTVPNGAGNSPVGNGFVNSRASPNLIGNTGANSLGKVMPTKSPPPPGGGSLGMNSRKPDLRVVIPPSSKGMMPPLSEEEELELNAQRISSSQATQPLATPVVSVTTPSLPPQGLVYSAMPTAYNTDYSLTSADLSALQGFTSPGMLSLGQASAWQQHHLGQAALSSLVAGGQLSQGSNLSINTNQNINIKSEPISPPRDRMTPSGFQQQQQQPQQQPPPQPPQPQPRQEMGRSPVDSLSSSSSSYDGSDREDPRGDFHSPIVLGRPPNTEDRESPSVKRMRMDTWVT
UniProt Q61151, whole entry: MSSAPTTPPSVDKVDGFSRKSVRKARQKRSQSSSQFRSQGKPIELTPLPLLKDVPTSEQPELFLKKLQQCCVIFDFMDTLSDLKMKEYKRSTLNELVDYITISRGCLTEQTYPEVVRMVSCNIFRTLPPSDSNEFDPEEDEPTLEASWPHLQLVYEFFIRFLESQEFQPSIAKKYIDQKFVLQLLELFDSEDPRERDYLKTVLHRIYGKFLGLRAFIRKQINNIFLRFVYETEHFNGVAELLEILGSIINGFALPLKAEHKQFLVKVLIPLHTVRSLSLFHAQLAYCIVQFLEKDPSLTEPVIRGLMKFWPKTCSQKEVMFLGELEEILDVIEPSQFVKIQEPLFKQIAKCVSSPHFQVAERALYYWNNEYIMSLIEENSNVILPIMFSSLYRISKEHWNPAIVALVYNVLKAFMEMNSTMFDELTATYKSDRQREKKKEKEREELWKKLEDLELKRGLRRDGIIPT
UniProt Q61025: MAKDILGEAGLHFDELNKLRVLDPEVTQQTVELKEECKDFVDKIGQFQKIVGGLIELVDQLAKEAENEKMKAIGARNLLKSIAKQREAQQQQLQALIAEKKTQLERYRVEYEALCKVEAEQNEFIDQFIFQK
UniProt Q61183: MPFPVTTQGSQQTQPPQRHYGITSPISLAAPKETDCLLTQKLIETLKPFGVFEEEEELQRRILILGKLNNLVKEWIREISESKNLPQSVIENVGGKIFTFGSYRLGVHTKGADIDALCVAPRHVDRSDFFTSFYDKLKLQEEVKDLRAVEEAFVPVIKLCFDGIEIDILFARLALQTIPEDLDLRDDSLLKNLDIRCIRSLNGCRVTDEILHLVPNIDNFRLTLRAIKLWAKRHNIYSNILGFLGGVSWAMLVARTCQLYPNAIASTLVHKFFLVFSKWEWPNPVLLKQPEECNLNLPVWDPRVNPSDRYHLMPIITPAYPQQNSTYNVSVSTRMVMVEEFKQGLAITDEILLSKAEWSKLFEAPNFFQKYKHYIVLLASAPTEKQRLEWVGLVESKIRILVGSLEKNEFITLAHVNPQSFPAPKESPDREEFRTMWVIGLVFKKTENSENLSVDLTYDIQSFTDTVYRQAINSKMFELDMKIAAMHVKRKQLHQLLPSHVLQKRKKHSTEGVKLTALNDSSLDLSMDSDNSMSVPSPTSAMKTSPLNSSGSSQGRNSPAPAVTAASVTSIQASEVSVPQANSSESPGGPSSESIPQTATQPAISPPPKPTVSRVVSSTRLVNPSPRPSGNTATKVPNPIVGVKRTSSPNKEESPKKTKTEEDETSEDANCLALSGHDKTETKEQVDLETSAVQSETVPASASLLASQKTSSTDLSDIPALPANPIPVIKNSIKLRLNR
UniProt Q61093: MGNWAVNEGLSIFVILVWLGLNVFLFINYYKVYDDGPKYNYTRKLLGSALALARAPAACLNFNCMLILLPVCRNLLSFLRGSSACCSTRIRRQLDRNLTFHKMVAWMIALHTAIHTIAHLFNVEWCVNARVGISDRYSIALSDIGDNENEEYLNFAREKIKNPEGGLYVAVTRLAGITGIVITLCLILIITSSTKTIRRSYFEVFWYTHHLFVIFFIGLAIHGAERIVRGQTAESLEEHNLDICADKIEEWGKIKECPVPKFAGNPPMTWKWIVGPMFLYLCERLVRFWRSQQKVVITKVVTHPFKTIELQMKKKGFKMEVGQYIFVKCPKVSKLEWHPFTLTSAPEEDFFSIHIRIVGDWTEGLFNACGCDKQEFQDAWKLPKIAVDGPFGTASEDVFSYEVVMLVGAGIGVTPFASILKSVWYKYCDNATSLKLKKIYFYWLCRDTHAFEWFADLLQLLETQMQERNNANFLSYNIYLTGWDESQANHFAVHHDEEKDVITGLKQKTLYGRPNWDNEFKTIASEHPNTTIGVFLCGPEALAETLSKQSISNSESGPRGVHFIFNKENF
UniProt Q5F2F2: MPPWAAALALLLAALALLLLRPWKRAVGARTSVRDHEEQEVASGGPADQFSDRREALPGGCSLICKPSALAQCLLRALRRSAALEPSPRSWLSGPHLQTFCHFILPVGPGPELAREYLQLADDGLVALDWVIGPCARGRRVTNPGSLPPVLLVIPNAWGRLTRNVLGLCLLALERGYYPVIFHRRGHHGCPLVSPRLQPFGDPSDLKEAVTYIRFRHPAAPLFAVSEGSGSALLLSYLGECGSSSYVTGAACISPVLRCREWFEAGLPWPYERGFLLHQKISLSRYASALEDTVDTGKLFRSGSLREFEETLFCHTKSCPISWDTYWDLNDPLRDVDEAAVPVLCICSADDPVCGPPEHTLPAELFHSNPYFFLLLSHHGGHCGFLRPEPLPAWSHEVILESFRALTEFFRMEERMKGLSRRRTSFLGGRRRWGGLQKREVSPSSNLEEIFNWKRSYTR

The list shows a part of the results. Small differences around the control level are noise.

Compound in this assay: CN[C@@H]1C[C@H]2O[C@@](C)([C@@H]1OC)n1c3ccccc3c3c4c(c5c6ccccc6n2c5c31)C(=O)NC4 [staurosporine]
The experiment in a line: log2 fold change of tryptic peptide abundance, ligand vs vehicle (limited proteolysis) (log2 ratio); higher = more trypsin-susceptible (destabilized). The conditions noted are these: ligand concentration: 20 uM; sample: mouse liver crude lysate; replicate design: treated separately.
As for “UniProt Q5SXY1 (peptide sequence: EVCDHQAEQLSR, peptide start residue: 631)”, the log2 fold change was determined as 0.419.

Regarding “UniProt Q5NBU8 (peptide sequence: KQNGTVALPLK, peptide start residue: 208)”, the log2 fold change turned out to be 0.359.

As to “UniProt Q5HZH2 (peptide sequence: LDDTPFQK, peptide start residue: 129)”, the log2 fold change came to 0.103.

On to “UniProt Q5SSH7 (peptide sequence: SLLSLGNDSEEKR, peptide start residue: 1392)”, for which the log2 fold change is -0.129.

In the case of “UniProt Q61140 (peptide sequence: EAPTDGKR, peptide start residue: 423)”, the log2 fold change is -0.685.

“UniProt Q5SNZ0 (peptide sequence: QSLQNCQNLSK, peptide start residue: 519)”: the log2 fold change is 0.345.

On to “UniProt Q61144 (peptide sequence: TSLMSAESPTSR, peptide start residue: 18)”, for which the log2 fold change is 0.124.

For the target “UniProt Q60760 (peptide sequence: GVLPCKLK, peptide start residue: 523)”, the log2 fold change was -0.216.

As for “UniProt Q61286 (peptide sequence: RRPLHDSVALDPLQAK, peptide start residue: 166)”, the log2 fold change is 0.534.

For the target “UniProt Q60943 (peptide sequence: RPTPEEQNPS, peptide start residue: 855)”, the log2 fold change is 0.333.

Turning to “UniProt Q5SYL3 (peptide sequence: SSILHLQEAVR, peptide start residue: 1812)”, the log2 fold change turned out to be 0.378.

With “UniProt Q5SSZ5 (peptide sequence: DKAPGSFIVR, peptide start residue: 1183)”, the log2 fold change was -0.337.

On to “UniProt Q60929 (peptide sequence: GDFHSPIVLGRPPNTEDR, peptide start residue: 466)”, for which the log2 fold change amounted to 0.15.

Consider “UniProt Q61142 (peptide sequence: VSALEVLPDRVATSR, peptide start residue: 108)”, for which the log2 fold change is -0.246.

With “UniProt Q5F293 (peptide sequence: RHSNVHSWRR, peptide start residue: 302)”, the log2 fold change is -0.36.

With “UniProt Q5SSH8 (peptide sequence: GMEANEQEQR, peptide start residue: 158)”, the log2 fold change is -0.267.

For “UniProt Q60952 (peptide sequence: LKNEELESERER, peptide start residue: 1382)”, the log2 fold change was -0.16.

Consider “UniProt Q61205 (peptide sequence: WMSLHHR, peptide start residue: 24)”, for which the log2 fold change is -0.203.

For the target “UniProt Q61263 (peptide sequence: NFMDTYR, peptide start residue: 22)”, the log2 fold change came to 0.23.

In the case of “UniProt Q61151 (peptide sequence: MVSCNIFR, peptide start residue: 118)”, the log2 fold change is -0.174.

For the target “UniProt Q61025 (peptide sequence: DILGEAGLHFDELNK, peptide start residue: 4)”, the log2 fold change stood at 0.071.

For the target “UniProt Q61234 (peptide sequence: QPSSPGPQPR, peptide start residue: 192)”, the log2 fold change is -0.215.

In the case of “UniProt Q61315 (peptide sequence: HHVDQPIDYSLK, peptide start residue: 1170)”, the log2 fold change is -0.324.

“UniProt Q61214 (peptide sequence: MHTGGETSACKPSSVR, peptide start residue: 1)”: the log2 fold change is 0.37.

As to “UniProt Q60592 (peptide sequence: LLQDAHER, peptide start residue: 271)”, the log2 fold change is -0.418.

As to “UniProt Q5EBP3 (peptide sequence: NLADSPQHR, peptide start residue: 218)”, the log2 fold change is -0.106.

“UniProt Q5U4E2 (peptide sequence: IHTGEKPYPCTECGRR, peptide start residue: 278)”: the log2 fold change is 1.02.

As to “UniProt Q61191 (peptide sequence: APVTVTSLPASVR, peptide start residue: 512)”, the log2 fold change was 0.36.

Regarding “UniProt Q5IR70 (peptide sequence: YRRHVGSLINK, peptide start residue: 765)”, the log2 fold change was -0.487.

Consider “UniProt Q60695 (peptide sequence: CVVSTVLGSK, peptide start residue: 289)”, for which the log2 fold change was 0.194.

For the target “UniProt Q61183 (peptide sequence: VPNPIVGVK, peptide start residue: 636)”, the log2 fold change stood at 0.244.

Turning to “UniProt Q61093 (peptide sequence: QSISNSESGPR, peptide start residue: 549)”, the log2 fold change was -0.494.

Turning to “UniProt Q5F2F2 (peptide sequence: TSVRDHEEQEVASGGPADQFSDRR, peptide start residue: 31)”, the log2 fold change is -0.476.

On to “UniProt Q5RJH2 (peptide sequence: TRPLLINLSK, peptide start residue: 16)”, for which the log2 fold change came to 0.113.

Take “UniProt Q5SU73 (peptide sequence: VTGSPAEEDEEETKKK, peptide start residue: 168)”: the log2 fold change came out at 0.27.
